Consider 39 sequences from PMC7862700.

Only a part is listed here, and it is no random draw. At the low end of the ranking the order means little.

The target in the experiment is T1, ETV3 (UniProt P41162-2).
T1 sequence: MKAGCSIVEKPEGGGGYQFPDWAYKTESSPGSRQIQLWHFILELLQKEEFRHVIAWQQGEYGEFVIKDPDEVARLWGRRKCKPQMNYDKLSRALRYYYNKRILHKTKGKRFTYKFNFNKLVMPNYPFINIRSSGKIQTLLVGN
The experiment can be described thus: DAPPL (digital affinity profiling via proximity ligation, sequencing). To be noted: 10 mM Tris-HCl pH 7.5, 50 mM NaCl, 1 mM DTT, 4% glycerol, room temperature, 30 min; GST-TFs on glutathione beads, 16-mer random dsDNA library, 0.1% …; high values mean tight binding; double strand, one strand shown; scale: fold enrichment (6-mer frequency, TF over GST control).
With CTCTCC, the binding signal came to 1.45.

CCTTGA displayed a binding signal of 1.19. As for CGCACT, the binding signal worked out at 1.39. In the case of CACTAT it was 1.2. In the case of TGTACC it was 1.35. Consider ATTTTA, for which the binding signal was 1.26. With GCAAAT, the binding signal was found to be 0.984. With TCCTGC the figure was 1.73; with GTCTAA, 0.963; with TGTAAG, 1.17. As for AGCCAC, the binding signal is 0.943. In the case of ATCCTT it was 1.84; in that of TATTAC, 1.24. In the case of TCATGG, the binding signal is 1.11. Regarding TTCTAG, the binding signal came out at 1.19. In turn, ATTTTC showed a binding signal of 1.42.

As to AAATCT, the binding signal worked out at 1.19. In the case of ACCCTG it was 1.13; in that of TCTTGG, 1.29. With CTGCAG the figure was 1.07. With TGATCC the figure was 1.24; with ATTTTG, 1.1; with ATCCAC, 1.14. As for CATCCT, the binding signal is 1.86. In the case of ATGCGA it was 1.32; in that of ACTAAT, 1.12. Regarding TCTGTA, the binding signal came to 1.25. Turning to CTAAAT, the binding signal came out at 1.4.

CTTAGT: the binding signal worked out at 1.31. With AGCGTC the figure was 1.01; with TTGATC, 1.26; with TCCCCC, 1.51.

ATGGTC showed a binding signal of 1.55.

Take AGCCTT: the binding signal amounted to 1.18. With TAGCTT the figure was 1.16; with TTCTCT, 1.3; with CAAGAA, 0.99. In the case of TGTACA it was 1.17. In the case of CTATTG it was 1.42.
